# The other results are listed elsewhere or left out. Shown are side measurements of this screen, not its main read-out; they come without a call. Compounds called inactive in the main read-out are mostly missing here. Potencies come from curve fits of mixed quality, noted in brackets.
# Test: IkB Signaling
# Settings: ABC-DLBCL IkBa-CBG/CBR dual luciferase ratio (green luciferase fused to IkBa over red control in OCI-Ly3 lymphoma cells), 4 h
# Outline: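 Curves were fitted separately to fusion (green), unfused (red) and ratio luminescence, then classed by r2, magnitude and activity. Cells: OCI-Ly3, 4 h compound plus doxycycline at 37C; 10 uM MG-132 defined full response.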
# [1] = measured here: control luc red channel unless noted
# [2] = measured here: IkB-luc green channel
# [3] = measured here: control luc red channel
smiles,measurement,setting,value
O=C(CCCSc1nnc(-c2cccs2)n1CC1CCCO1)c1ccccc1 (stereo not given),AC50,[1],"39.8 µM [falling, partial curve]"
CCCn1c(SCC(=O)Nc2ccccc2N2CCCCC2)nc2c1c(=O)n(C)c(=O)n2C,AC50,[2],"20 µM [falling, partial curve]"
same,AC50,[3],"20 µM [falling, partial curve]"
Cn1ccc2c(OCC(=O)NCc3ccccc3)cccc2c1=O,AC50,[1],"3.16 µM [rising, single point]"
CC(C)c1nn2c(=O)cc(COC(=O)c3cccc(NC(=O)c4cccs4)c3)nc2s1,AC50,[1],"3.16 µM [falling, full curve]"
CCc1ccccc1NC(=O)CCOc1ccccc1,AC50,[1],"15.8 µM [falling, partial curve]"
Cc1ccccc1C(=O)Nc1ccc2nc(SCC(=O)N3CCc4ccccc43)sc2c1,AC50,[1],"3.16 µM [falling, partial curve]"
COc1ccccc1CNC(=O)Cn1ncn2c(cc3sccc32)c1=O,AC50,[1],"3.98 µM [rising, partial curve]"
COc1ccccc1NC(=O)CC(c1cc(OC)c(OC)c(OC)c1)N1Cc2ccccc2C1=O (stereo not given),AC50,[1],"39.8 µM [falling, single point]"
CCCCCSc1nc2sc3c(c2c(=O)n1-c1ccc(OC)cc1)CCN(C(C)=O)C3,AC50,[1],"10 µM [falling, partial curve]"
CCOc1cc(C(=O)OCC(=O)c2c(C)[nH]c3ccccc23)ccc1OCC(=O)N1CCOCC1,AC50,[1],"20 µM [falling, partial curve]"
CCOC(=O)CSc1nnc2n(-c3ccccc3)c(=O)c3c4c(sc3n12)CC(C(C)(C)C)CC4 (stereo not given),AC50,[1],"39.8 µM [falling, single point]"
CCN(Cc1nc2ccccc2c(=O)[nH]1)Cc1cc(=O)oc2cc(C)c(C)cc12,AC50,[1],"25.1 µM [falling, partial curve]"
Cc1sc2ncn(CC(=O)N3CCN(c4ccc(F)cc4)CC3)c(=O)c2c1S(=O)(=O)N1CCC(C)CC1,AC50,[1],"15.8 µM [falling, partial curve]"
O=C(c1noc2c1CCCC2)N1CCCCC1,AC50,[1],"12.6 µM [falling, partial curve]"
COC(=O)C1=C(c2ccccc2)c2ccccc2S(=O)(=O)N1CC(=O)Nc1ccc(F)c(F)c1,AC50,[1],"20 µM [falling, partial curve]"
Cc1cccc(OCc2nnc(SCC(=O)N(C(C)C)C(C)C)n2Cc2ccco2)c1C,AC50,[1],"25.1 µM [falling, partial curve]"
O=C(CCS(=O)(=O)c1cc2c(cc1Cl)NC(=O)CO2)NCc1ccccc1Cl,AC50,[1],"12.6 µM [falling, partial curve]"
COc1ccc(C2CC(=O)c3cnc(NC(=O)c4cccc(OC)c4)nc3C2)cc1 (stereo not given),AC50,[1],"5.01 µM [falling, partial curve]"
Oc1c(C(c2ccc(Cl)cc2Cl)N2CCN(c3ccccc3)CC2)sc2nc(-c3ccco3)nn12 (stereo not given),AC50,[1],"39.8 µM [falling, single point]"
O=C(NCc1cccc(Cl)c1)c1ccc(NC(=O)N2CC3CCCN3c3ccccc32)cc1 (stereo not given),AC50,[1],"10 µM [falling, partial curve]"
C=CCN1CN(S(=O)(=O)c2cccs2)c2nc3ccccc3nc21,AC50,[1],"12.6 µM [falling, partial curve]"
COc1ccc(NC(=O)CN2CCCN(Cc3ccc(Cl)cc3)S2(=O)=O)cc1Cl,AC50,[1],"12.6 µM [falling, partial curve]"
Cc1ccc(S(=O)(=O)Nc2nc3ccccc3nc2NCc2ccco2)cc1C,AC50,[1],"2 µM [falling, full curve]"
CCOC(=O)c1ccc(NC(=O)Cn2cc(C(=O)c3ccc(CC)cc3)c(=O)c3ccc(C)nc32)cc1,AC50,[1],"1 µM [falling, full curve, poor fit]"
CCOC(=O)c1cnc2ccccc2c1NCCc1ccc(OC)c(OC)c1,AC50,[1],"39.8 µM [falling, single point]"
CC1CCc2nn(CC(=O)Nc3ccccc3Cl)cc2C1 (stereo not given),AC50,[1],"3.16 µM [rising, single point]"
COc1ccc(NC(=O)C(=O)NCC(c2cccnc2)N2CCc3ccccc32)cc1OC (stereo not given),AC50,[1],"0.0398 µM [rising, full curve]"
CN(Cc1ccccc1)S(=O)(=O)c1ccc(-c2cnc(C3CC3)o2)cc1,AC50,[1],"10 µM [falling, partial curve]"
COc1cccc(S(=O)(=O)N2CCN(Cc3ccc4c(c3)OCO4)CC2)c1,AC50,[1],"25.1 µM [falling, partial curve, poor fit]"
Cc1cccc(N2CCN(C(=O)CN3CCSc4ccccc43)CC2C)c1 (stereo not given),AC50,[1],"31.6 µM [falling, partial curve]"
COC(=O)c1sc(NC(=O)c2ccc(OC)cc2OC)nc1C,AC50,[1],"0.00316 µM [falling, full curve]"
CCCn1c(SCc2nc(-c3ccc(OC)c(OC)c3)no2)nnc1-c1ccccc1,AC50,[1],"39.8 µM [falling, single point]"
Cc1cc(Nc2ccc(F)cc2)n2c(nc3ccccc32)c1C#N,AC50,[1],"0.316 µM [rising, full curve]"
Cc1c(-c2nc(-c3ccccc3)no2)nnn1-c1cccc(C(F)(F)F)c1,AC50,[1],"1.26 µM [falling, full curve]"
COc1ccccc1CNC(=O)c1ccc2c(c1)nc(C)n2-c1ccccc1OC,AC50,[1],"10 µM [falling, partial curve, poor fit]"
CCn1cc(CN(C)C(=O)CSc2nc(-c3ccco3)cc(C(F)(F)F)n2)c(C)n1,AC50,[1],"31.6 µM [falling, partial curve]"
O=C(CSc1ncccc1C(=O)O)c1ccccc1,AC50,[1],"39.8 µM [rising, single point]"
CCOc1ccc(NC(=O)Cn2c(C)cc3ccccc3c2=O)cc1,AC50,[1],"12.6 µM [falling, partial curve]"
CCOc1ccccc1NC(=O)CN1C(=O)CC(c2ccc(OC)c(OC)c2)Sc2ccccc21 (stereo not given),AC50,[1],"15.8 µM [falling, partial curve]"
COc1ccc(-c2n[nH]c(C(F)(F)F)c2-c2cc3ccccc3o2)c(O)c1,AC50,[1],"12.6 µM [falling, partial curve]"
COc1cc(OC)cc([C@H](CNc2ncnc3c2ncn3[C@@H]2O[C@@H](CO)[C@H](O)[C@@H]2O)c2ccccc2C)c1,AC50,[2],"0.631 µM [rising, full curve, poor fit]"
same,AC50,[3],"0.02 µM [rising, full curve, poor fit]"
Cc1ccc(N2C(=O)CCSC23C(=O)N(Cc2ccccc2)c2ccccc23)cc1F (stereo not given),AC50,[1],"12.6 µM [falling, partial curve]"
O=C(NCc1ccc(F)cc1)c1cc2c(=O)n3ccccc3nc2s1,AC50,[1],"1 µM [rising, full curve]"
Cc1ccc(CNC(=O)Cn2c(=O)n(-c3ccc(Cl)cc3)c(=O)c3c(C)c(C)sc32)cc1,AC50,[1],"0.316 µM [falling, partial curve]"
O=C(NCc1ccccc1)c1nn(-c2ccccc2)nc1CO,AC50,[1],"31.6 µM [falling, single point]"
Cc1cc(C)cc(NS(=O)(=O)c2ccc3[nH]cc(C(=O)N(C)Cc4ccccc4)c(=O)c3c2)c1,AC50,[1],"12.6 µM [falling, partial curve]"
Cc1nn(C)c2c1c(C(F)(F)F)cc(=O)n2C(C)C(=O)NCc1ccc(Cl)cc1 (stereo not given),AC50,[1],"31.6 µM [falling, single point]"
CCOC(=O)c1ccc(NS(=O)(=O)c2cc(-c3onc(C)c3C)ccc2C)cc1,AC50,[1],"39.8 µM [falling, single point]"
CCSc1nnc(NC(=O)c2ccc(Br)s2)s1,AC50,[1],"0.398 µM [falling, full curve]"
CCN1C(=O)c2ccccc2S(=O)c2ccc(C(=O)N3CCN(c4cccc(C)c4)C(C)C3)cc21 (stereo not given),AC50,[1],"20 µM [falling, single point]"
COc1ccc(/C=C(\C#N)c2nc(-c3cc4c(ccc5ccccc54)oc3=O)cs2)cc1O,AC50,[1],"3.98 µM [falling, partial curve]"
O=C(O)c1ccc(-n2c(/C=C\c3ccc(O)cc3)nc3ccccc3c2=O)cc1,AC50,[1],"20 µM [falling, single point]"
CCOC(=O)c1ccccc1NC(=O)c1sc2ncn(Cc3cccc(F)c3)c(=O)c2c1C,AC50,[1],"20 µM [falling, partial curve, poor fit]"
CC1=C(C(=O)Nc2cccnc2)C(c2ccc(Cl)cc2)n2nc(-c3ccccc3)nc2N1 (stereo not given),AC50,[1],"12.6 µM [falling, partial curve]"
COc1ccc(OC)c(S(=O)(=O)NCc2cccn2Cc2cccc(C)c2)c1,AC50,[1],"20 µM [falling, single point]"
Clc1ccc(OCCN2CCN(c3ncnc4sccc34)CC2)cc1,AC50,[1],"12.6 µM [falling, partial curve]"
Cc1ccc(C)c(NC(=O)CSc2c3c(nc4ccc(Cl)cc24)CCCC3)c1,AC50,[1],"3.16 µM [falling, single point]"
COc1cn(CC(=O)Nc2cccc(C)c2C)c(CN2CCCCC2)cc1=O,AC50,[1],"6.31 µM [rising, single point]"
COc1ccc(C(=O)Nc2cccc(OCc3cc(=O)n4c5c(sc4n3)CCCC5)c2)cc1,AC50,[1],"0.631 µM [falling, full curve]"
COc1ccc(CC(=O)Nc2cccc(-c3nnc(-c4cccc(C)c4)o3)c2)cc1OC,AC50,[2],"2 µM [falling, full curve]"
same,AC50,[3],"0.794 µM [falling, full curve]"
COC(=O)c1sc(NC(=O)/C=C/c2ccc(OC)c(OC)c2)c(C(=O)OC)c1C,AC50,[2],"10 µM [rising, partial curve]"
same,AC50,[3],"1.26 µM [falling, full curve]"

# Random excerpt: 3 entries already listed, in no set order.
smiles,measurement,setting,value
Clc1ccc(OCCN2CCN(c3ncnc4sccc34)CC2)cc1,AC50,[1],"12.6 µM [falling, partial curve]"
COC(=O)c1sc(NC(=O)/C=C/c2ccc(OC)c(OC)c2)c(C(=O)OC)c1C,AC50,[2],"10 µM [rising, partial curve]"
CC1CCc2nn(CC(=O)Nc3ccccc3Cl)cc2C1 (stereo not given),AC50,[1],"3.16 µM [rising, single point]"
